Results are given in words; binding and its absence hold for the method and conditions named. Some results given as binding are weak or reduced against the parent protein; the word gives no strength.
T1: P2 peptide comprising SEQ ID NO: 31 (human fibrin γ377-395) (human)
T1 sequence (peptide): YSMKKTTMKIIPFNRLTIG

T2: fibrin(ogen) accumulated in spinal cord lesions of mice with chronic EAE (mouse) (UniProt E9PV24+Q8K0E8+Q8VCM7)
T2 sequence (looked up) 1: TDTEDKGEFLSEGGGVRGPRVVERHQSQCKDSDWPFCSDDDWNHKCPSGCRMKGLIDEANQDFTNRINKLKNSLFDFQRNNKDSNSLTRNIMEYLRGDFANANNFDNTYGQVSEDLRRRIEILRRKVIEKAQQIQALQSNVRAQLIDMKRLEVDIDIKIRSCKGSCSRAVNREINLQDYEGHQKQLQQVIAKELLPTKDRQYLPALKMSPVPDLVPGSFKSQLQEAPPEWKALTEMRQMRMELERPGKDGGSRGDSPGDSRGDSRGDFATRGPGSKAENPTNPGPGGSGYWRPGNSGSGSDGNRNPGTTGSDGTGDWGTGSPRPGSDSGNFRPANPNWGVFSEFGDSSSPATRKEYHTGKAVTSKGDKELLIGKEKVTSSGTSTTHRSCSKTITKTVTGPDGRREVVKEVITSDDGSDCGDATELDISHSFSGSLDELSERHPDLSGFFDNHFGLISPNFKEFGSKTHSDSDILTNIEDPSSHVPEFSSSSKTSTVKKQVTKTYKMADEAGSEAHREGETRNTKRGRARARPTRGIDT
T2 sequence (looked up) 2: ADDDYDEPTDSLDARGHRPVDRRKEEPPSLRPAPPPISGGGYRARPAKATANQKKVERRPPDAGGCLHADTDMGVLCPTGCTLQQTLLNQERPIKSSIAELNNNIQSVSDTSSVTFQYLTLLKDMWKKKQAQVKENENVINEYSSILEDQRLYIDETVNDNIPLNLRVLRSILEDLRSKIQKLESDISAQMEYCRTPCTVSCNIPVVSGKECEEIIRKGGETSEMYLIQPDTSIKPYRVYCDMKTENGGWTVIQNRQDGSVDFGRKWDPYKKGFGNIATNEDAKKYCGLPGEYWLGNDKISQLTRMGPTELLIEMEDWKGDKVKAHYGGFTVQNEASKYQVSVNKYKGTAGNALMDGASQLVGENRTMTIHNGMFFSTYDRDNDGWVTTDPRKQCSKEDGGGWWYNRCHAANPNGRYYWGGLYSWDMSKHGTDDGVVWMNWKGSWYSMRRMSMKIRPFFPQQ
T2 sequence (looked up) 3: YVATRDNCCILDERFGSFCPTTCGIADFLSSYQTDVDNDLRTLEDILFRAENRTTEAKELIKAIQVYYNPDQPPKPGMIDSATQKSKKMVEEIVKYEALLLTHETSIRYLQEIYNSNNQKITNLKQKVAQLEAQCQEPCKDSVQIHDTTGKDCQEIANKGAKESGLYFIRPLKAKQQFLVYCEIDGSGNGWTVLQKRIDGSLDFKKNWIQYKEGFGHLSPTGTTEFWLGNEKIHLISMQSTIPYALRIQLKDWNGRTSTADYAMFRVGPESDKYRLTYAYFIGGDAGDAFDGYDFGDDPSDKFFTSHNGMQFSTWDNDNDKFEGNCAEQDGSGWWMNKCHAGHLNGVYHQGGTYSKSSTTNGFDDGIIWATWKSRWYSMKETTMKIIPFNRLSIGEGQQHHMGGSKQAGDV


How the values were obtained:
[1] = target: T1, P2 peptide comprising SEQ ID NO: 31 (human fibrin γ377-395) (human); test: SPR (Biacore) single cycle, steady state
[2] = target: T1, P2 peptide comprising SEQ ID NO: 31 (human fibrin γ377-395) (human); test: SPR (Biacore), single cycle kinetics, antibody from HEK supernatant captured on anti-human chip, fibrin peptide γ377-395 as analyte, steady state fit
[3] = target: T2, fibrin(ogen) accumulated in spinal cord lesions of mice with chronic EAE (mouse); test: staining of spinal cord sections of chronic EAE mice with VH5 C102G/Vκ2-biotin and CY3-streptavidin
[4] = target: T2, fibrin(ogen) accumulated in spinal cord lesions of mice with chronic EAE (mouse); test: fluorescence staining of spinal cord sections of chronic EAE mice with VH5 C102G/VK2-biotin and CY3-streptavidin, beside a fibrinogen stain

Row | Binder | binding [1] | binding [2] | binding [3] | binding [4]
1 | VH4 C102A/VK2 (antibody, IgG1, V domains shown, IgG1, tested from HEK supernatant) VH: QVQLVQSGAEVKKPGSSVKVSCKASGYTFTSYWIHWVRQAPGQGLEWIGLIDPSDSYTNYNQKFRGRVTITVDTSTSTAYMELSSLRSEDTAVYYCASSDPTGAWGQGTTVTVSS VL: DIVMTQAAFSNPVTPGTPASISCRSSKSLLHSSGITYLSWYLQKPGQSPQLLIYQMSNLASGVPDRFSSSGSGTDFTLKISRVEAEDVGVYYCAQNLELPLTFGQGTKLEIK | binds | binds | – | –
2 | VH4 C102V/VK2 (antibody, IgG1, V domains shown, IgG1, tested from HEK supernatant; also called VH4-102V) VH: QVQLVQSGAEVKKPGSSVKVSCKASGYTFTSYWIHWVRQAPGQGLEWIGLIDPSDSYTNYNQKFRGRVTITVDTSTSTAYMELSSLRSEDTAVYYCASSDPTGVWGQGTTVTVSS VL: DIVMTQAAFSNPVTPGTPASISCRSSKSLLHSSGITYLSWYLQKPGQSPQLLIYQMSNLASGVPDRFSSSGSGTDFTLKISRVEAEDVGVYYCAQNLELPLTFGQGTKLEIK | binds | binds | – | –
3 | VH4 C102S/VK2 (antibody, IgG1, V domains shown, IgG1, tested from HEK supernatant) VH: QVQLVQSGAEVKKPGSSVKVSCKASGYTFTSYWIHWVRQAPGQGLEWIGLIDPSDSYTNYNQKFRGRVTITVDTSTSTAYMELSSLRSEDTAVYYCASSDPTGSWGQGTTVTVSS VL: DIVMTQAAFSNPVTPGTPASISCRSSKSLLHSSGITYLSWYLQKPGQSPQLLIYQMSNLASGVPDRFSSSGSGTDFTLKISRVEAEDVGVYYCAQNLELPLTFGQGTKLEIK | binds | binds | – | –
4 | VH4 C102L/VK2 (antibody, IgG1, V domains shown, IgG1, tested from HEK supernatant; also called VH4-102L) VH: QVQLVQSGAEVKKPGSSVKVSCKASGYTFTSYWIHWVRQAPGQGLEWIGLIDPSDSYTNYNQKFRGRVTITVDTSTSTAYMELSSLRSEDTAVYYCASSDPTGLWGQGTTVTVSS VL: DIVMTQAAFSNPVTPGTPASISCRSSKSLLHSSGITYLSWYLQKPGQSPQLLIYQMSNLASGVPDRFSSSGSGTDFTLKISRVEAEDVGVYYCAQNLELPLTFGQGTKLEIK | binds | binds | – | –
5 | VH5 C102A/VK2 (antibody, IgG1, V domains shown, IgG1, tested from HEK supernatant) VH: QVQLVQSGAEVKKPGSSVKVSCKASGYTFTSYWIHWVRQAPGQGLEWIGLIDPSDSYTNYNQKFRGRVTITRDTSTSTAYMELSSLRSEDTAVYYCASSDPTGAWGQGTTVTVSS VL: DIVMTQAAFSNPVTPGTPASISCRSSKSLLHSSGITYLSWYLQKPGQSPQLLIYQMSNLASGVPDRFSSSGSGTDFTLKISRVEAEDVGVYYCAQNLELPLTFGQGTKLEIK | binds | binds | – | –
6 | VH4 C102T/VK2 (antibody, IgG1, V domains shown, IgG1, tested from HEK supernatant) VH: QVQLVQSGAEVKKPGSSVKVSCKASGYTFTSYWIHWVRQAPGQGLEWIGLIDPSDSYTNYNQKFRGRVTITVDTSTSTAYMELSSLRSEDTAVYYCASSDPTGTWGQGTTVTVSS VL: DIVMTQAAFSNPVTPGTPASISCRSSKSLLHSSGITYLSWYLQKPGQSPQLLIYQMSNLASGVPDRFSSSGSGTDFTLKISRVEAEDVGVYYCAQNLELPLTFGQGTKLEIK | binds | binds | – | –

Next, values leading:

Row | binding [1] | binding [2] | binding [3] | binding [4] | Binder
7 | binds | binds | – | – | VH5 C102V/VK2 (antibody, IgG1, V domains shown, IgG1, tested from HEK supernatant; also called VH5-102V) VH: QVQLVQSGAEVKKPGSSVKVSCKASGYTFTSYWIHWVRQAPGQGLEWIGLIDPSDSYTNYNQKFRGRVTITRDTSTSTAYMELSSLRSEDTAVYYCASSDPTGVWGQGTTVTVSS VL: DIVMTQAAFSNPVTPGTPASISCRSSKSLLHSSGITYLSWYLQKPGQSPQLLIYQMSNLASGVPDRFSSSGSGTDFTLKISRVEAEDVGVYYCAQNLELPLTFGQGTKLEIK
8 | – | – | binds | binds | humanized anti-fibrin antibody variant VH5 C102G/VK2 (antibody, IgG1, V domains shown, IgG1, tested from HEK supernatant in the SPR assay; also called VH5 C102G/Vκ2; VH5-102G) VH: QVQLVQSGAEVKKPGSSVKVSCKASGYTFTSYWIHWVRQAPGQGLEWIGLIDPSDSYTNYNQKFRGRVTITRDTSTSTAYMELSSLRSEDTAVYYCASSDPTGGWGQGTTVTVSS VL: DIVMTQAAFSNPVTPGTPASISCRSSKSLLHSSGITYLSWYLQKPGQSPQLLIYQMSNLASGVPDRFSSSGSGTDFTLKISRVEAEDVGVYYCAQNLELPLTFGQGTKLEIK
9 | binds | binds | – | – | VH5 C102S/VK2 (antibody, IgG1, V domains shown, IgG1, tested from HEK supernatant) VH: QVQLVQSGAEVKKPGSSVKVSCKASGYTFTSYWIHWVRQAPGQGLEWIGLIDPSDSYTNYNQKFRGRVTITRDTSTSTAYMELSSLRSEDTAVYYCASSDPTGSWGQGTTVTVSS VL: DIVMTQAAFSNPVTPGTPASISCRSSKSLLHSSGITYLSWYLQKPGQSPQLLIYQMSNLASGVPDRFSSSGSGTDFTLKISRVEAEDVGVYYCAQNLELPLTFGQGTKLEIK
10 | binds | binds | – | – | VH5 C102L/VK2 (antibody, IgG1, V domains shown, IgG1, tested from HEK supernatant; also called VH5-102L) VH: QVQLVQSGAEVKKPGSSVKVSCKASGYTFTSYWIHWVRQAPGQGLEWIGLIDPSDSYTNYNQKFRGRVTITRDTSTSTAYMELSSLRSEDTAVYYCASSDPTGLWGQGTTVTVSS VL: DIVMTQAAFSNPVTPGTPASISCRSSKSLLHSSGITYLSWYLQKPGQSPQLLIYQMSNLASGVPDRFSSSGSGTDFTLKISRVEAEDVGVYYCAQNLELPLTFGQGTKLEIK

Reference: US20240279357A1 (THERINI BIO, published 2024)
